# Laboratory results as given in PMC6825352, “Ghd8 controls rice photoperiod sensitivity by forming a complex that interacts with Ghd7”.
# For some of these results: Negatives hold for the conditions tested. For some of these results: At least one verdict was read from the data and is not stated in words by the source. For some of these results: Construct, isoform or probe ends are uncertain for at least one entry. For some of these results: Weaker means in comparison with the reference protein, sequence or condition of that experiment. For some of these results: Tags and fusion partners may be left off the protein sequences shown.
# Assays:
# Assay in all cases: EMSA
# [1] = system: HD1 (MBP-HD1) + GHD8 (His-GHD8, NF-YB) + OsHAP5b (His-HAP5b, NF-YC); conditions: negative control probe lacking CCAAT; 5 mM Tris pH 7.5, 25 mM KCl, 0.5 mM DTT, 5 mM MgCl2, 2.5% glycerol, 0.05% NP-40, 50 ng/uL poly(dI-dC), room temperature 20 min, 5% polyacrylamide gel; recombinant protein; label: biotin
# [2] = target: MBP (UniProt P0AEX9); conditions: negative control; 5 mM Tris pH 7.5, 25 mM KCl, 0.5 mM DTT, 5 mM MgCl2, 2.5% glycerol, 0.05% NP-40, 50 ng/uL poly(dI-dC), room temperature 20 min, 5% polyacrylamide gel; recombinant protein; label: 3'-biotin
# [3] = target: T1, HD1 (MBP-HD1) (Oryza sativa (rice)) (UniProt Q9FDX8); conditions: HD1 alone, competed by 25x/100x unlabeled F1; 5 mM Tris pH 7.5, 25 mM KCl, 0.5 mM DTT, 5 mM MgCl2, 2.5% glycerol, 0.05% NP-40, 50 ng/uL poly(dI-dC), room temperature 20 min, 5% polyacrylamide gel; recombinant protein; protein details: MBP (pMAL-c2X, text says MBP 'at the down-stream'); label: 3'-biotin
# T1 sequence (looked up, limits assumed): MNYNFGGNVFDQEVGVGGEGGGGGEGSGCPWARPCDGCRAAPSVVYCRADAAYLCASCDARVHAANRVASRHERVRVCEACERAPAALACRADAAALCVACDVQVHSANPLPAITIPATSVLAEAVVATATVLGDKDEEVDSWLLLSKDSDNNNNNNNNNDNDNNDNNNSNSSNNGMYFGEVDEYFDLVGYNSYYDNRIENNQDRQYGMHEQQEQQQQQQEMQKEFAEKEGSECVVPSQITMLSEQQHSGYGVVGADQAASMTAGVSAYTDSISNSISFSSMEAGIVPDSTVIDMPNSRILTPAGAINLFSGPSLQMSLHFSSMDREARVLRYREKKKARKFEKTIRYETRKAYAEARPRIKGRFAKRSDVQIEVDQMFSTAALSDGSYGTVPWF
Sequence,binding result [1],binding result [2],binding result [3]
ATCTGACAGCTGACGGGCAGCTACATGAGGAGTCG (double strand) [MF2],no binding,,
ATCTGGTTGCAATGGGGATGGCCAATGAGGAGTCG (double strand) [F1],,no binding,binds more weakly
ATCTGGTTGTAATGGGGATGGTACATGAGGAGTCG (double strand) [MF1],no binding,,
